What was measured:
A375 melanoma cells = assay: cells; details: Homo sapiens, A-375, read-out: fluoxetine level causing 50% inhibition of tritiated thymidine incorporation
B16BL6 melanoma cells = assay: cells; details: Mus musculus, B16-BL6, read-out: fluoxetine level causing 50% inhibition of tritiated thymidine incorporation

CNCCC(Oc1ccc(C(F)(F)F)cc1)c1ccccc1 (centres unmarked) [fluoxetine]
IC50 (A375 melanoma cells): 4 to 15 µM
IC50 (B16BL6 melanoma cells): 4 to 15 µM

Reference: patent US6927223B1, “Use of serotonin agents for adjunct therapy in the treatment of cancer” (priority 2000, dated 2005)
